Results taken from patent US20100130583A1, “PROLINAMIDE DERIVATIVES AS MODULATORS OF VOLTAGE-GATED SODIUM CHANNELS” (GLAXO GROUP LIMITED, priority 2007, published 2010).
Some entries share one result that the patent states for a list of compounds.

Amino acid sequences for entries named in this document (tags omitted).
UniProt Q9NY46, whole entry: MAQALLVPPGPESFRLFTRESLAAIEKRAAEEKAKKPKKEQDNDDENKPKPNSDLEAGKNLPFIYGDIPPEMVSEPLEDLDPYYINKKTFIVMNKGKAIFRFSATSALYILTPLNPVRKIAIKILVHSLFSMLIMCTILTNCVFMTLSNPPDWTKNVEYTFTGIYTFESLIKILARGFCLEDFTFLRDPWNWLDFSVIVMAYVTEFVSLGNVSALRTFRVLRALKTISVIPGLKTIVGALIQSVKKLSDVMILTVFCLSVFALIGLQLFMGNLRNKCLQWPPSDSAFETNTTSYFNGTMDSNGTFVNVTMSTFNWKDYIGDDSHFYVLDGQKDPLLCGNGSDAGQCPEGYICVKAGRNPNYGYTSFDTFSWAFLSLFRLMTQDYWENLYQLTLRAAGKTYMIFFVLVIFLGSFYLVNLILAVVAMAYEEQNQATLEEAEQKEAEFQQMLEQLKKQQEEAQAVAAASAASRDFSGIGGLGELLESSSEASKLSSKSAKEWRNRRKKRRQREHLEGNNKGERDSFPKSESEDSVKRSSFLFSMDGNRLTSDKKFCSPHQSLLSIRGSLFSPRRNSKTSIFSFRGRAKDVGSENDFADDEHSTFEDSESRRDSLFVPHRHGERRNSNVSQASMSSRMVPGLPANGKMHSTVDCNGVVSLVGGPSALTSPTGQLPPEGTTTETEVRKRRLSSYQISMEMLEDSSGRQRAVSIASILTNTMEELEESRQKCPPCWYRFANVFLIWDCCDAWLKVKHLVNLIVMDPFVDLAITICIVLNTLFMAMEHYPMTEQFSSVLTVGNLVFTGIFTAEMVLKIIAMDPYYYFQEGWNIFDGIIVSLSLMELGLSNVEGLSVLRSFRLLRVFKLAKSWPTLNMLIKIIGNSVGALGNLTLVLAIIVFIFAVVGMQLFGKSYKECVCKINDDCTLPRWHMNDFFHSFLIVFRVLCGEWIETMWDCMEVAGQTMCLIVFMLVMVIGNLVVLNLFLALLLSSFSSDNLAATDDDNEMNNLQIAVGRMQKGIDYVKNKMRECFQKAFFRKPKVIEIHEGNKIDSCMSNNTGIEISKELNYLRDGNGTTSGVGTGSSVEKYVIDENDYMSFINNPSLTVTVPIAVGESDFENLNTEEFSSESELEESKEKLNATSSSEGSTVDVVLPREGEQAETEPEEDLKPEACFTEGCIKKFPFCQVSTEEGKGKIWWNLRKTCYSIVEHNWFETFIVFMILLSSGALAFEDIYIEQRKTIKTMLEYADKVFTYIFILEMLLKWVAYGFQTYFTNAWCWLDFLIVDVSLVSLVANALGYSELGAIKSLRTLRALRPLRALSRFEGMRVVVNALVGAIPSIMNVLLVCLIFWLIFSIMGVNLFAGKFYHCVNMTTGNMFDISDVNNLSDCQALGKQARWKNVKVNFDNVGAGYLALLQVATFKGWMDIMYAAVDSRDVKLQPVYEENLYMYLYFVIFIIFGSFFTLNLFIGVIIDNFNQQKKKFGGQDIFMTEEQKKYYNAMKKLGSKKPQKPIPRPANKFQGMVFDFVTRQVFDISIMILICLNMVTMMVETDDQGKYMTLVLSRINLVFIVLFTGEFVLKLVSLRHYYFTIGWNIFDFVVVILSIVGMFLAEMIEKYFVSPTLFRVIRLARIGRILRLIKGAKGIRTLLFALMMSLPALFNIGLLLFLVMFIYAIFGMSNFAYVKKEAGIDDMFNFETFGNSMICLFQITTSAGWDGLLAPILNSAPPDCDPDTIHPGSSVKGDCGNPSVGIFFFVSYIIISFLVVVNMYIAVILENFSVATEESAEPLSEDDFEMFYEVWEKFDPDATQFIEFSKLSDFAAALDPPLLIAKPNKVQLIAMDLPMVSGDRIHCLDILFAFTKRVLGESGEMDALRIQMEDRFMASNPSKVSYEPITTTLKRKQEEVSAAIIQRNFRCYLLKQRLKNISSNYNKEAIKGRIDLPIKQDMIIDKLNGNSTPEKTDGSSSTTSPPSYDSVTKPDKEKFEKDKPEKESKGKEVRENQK

The molecules below were run against T1, hNaV1.3 channels (Homo sapiens, UniProt Q9NY46) (assay: Na channel assay (IonWorksHT planar array electrophysiology, use-dependent inhibition)). Conditions: CHO cells expressing hNaV1.3; 10th versus 1st depolarising pulse, 10 Hz, holding potential -90 mV to 0 mV.
T1 construct: expressed in transfected cells
Format: cell-based

use-dependent pUD15 (concentration producing 15% use-dependent inhibition), ≥ 5.0:
CNC(=O)[C@]1(COC)CC[C@H](c2ccc(OCc3ccccc3F)cc2)N1.Cl [Example 1, (5R)-5-(4-{[(2-Fluorophenyl)methyl]oxy}phenyl)-N-methyl-2-[(methyloxy)methyl]-L-prolinamide hydrochloride]
COC[C@@]1(C(=O)N(C)C)CC[C@H](c2ccc(OCc3ccccc3F)cc2)N1.Cl [Example 2, (5R)-5-(4-{[(2-Fluorophenyl)methyl]oxy}phenyl)-N,N-dimethyl-2-[(methyloxy)methyl]-L-prolinamide hydrochloride]
CN(C)C(=O)[C@]1(CO)CC[C@H](c2ccc(OCc3ccccc3F)cc2)N1.Cl [Example 3, (5R)-5-(4-{[(2-fluorophenyl)methyl]oxy}phenyl)-2-(hydroxymethyl)-N,N-dimethyl-L-prolinamide hydrochloride]
CNC(=O)[C@]1(CO)CC[C@H](c2ccc(OCc3ccccc3F)cc2)N1.Cl [Example 4, (5R)-5-(4-{[(2-Fluorophenyl)methyl]oxy}phenyl)-2-(hydroxymethyl)-N-methyl-L-prolinamide hydrochloride]
